Experimental data from the supplement of paper PMC3334620.
Over roughly 33,000 sequences, “E-score (-0.5 to 0.5)” has its median near -0.016; the highest 2% begin near 0.3. The list shows a part of the results.

biological target: T1, Yer184c (UniProt P39961); assay: PBM E-score (8-mer binding enrichment) (E-score (-0.5 to 0.5)); higher = stronger / more preferred TF binding; details: protein concentration: 100 nM; construct: GST-full length
T1 sequence: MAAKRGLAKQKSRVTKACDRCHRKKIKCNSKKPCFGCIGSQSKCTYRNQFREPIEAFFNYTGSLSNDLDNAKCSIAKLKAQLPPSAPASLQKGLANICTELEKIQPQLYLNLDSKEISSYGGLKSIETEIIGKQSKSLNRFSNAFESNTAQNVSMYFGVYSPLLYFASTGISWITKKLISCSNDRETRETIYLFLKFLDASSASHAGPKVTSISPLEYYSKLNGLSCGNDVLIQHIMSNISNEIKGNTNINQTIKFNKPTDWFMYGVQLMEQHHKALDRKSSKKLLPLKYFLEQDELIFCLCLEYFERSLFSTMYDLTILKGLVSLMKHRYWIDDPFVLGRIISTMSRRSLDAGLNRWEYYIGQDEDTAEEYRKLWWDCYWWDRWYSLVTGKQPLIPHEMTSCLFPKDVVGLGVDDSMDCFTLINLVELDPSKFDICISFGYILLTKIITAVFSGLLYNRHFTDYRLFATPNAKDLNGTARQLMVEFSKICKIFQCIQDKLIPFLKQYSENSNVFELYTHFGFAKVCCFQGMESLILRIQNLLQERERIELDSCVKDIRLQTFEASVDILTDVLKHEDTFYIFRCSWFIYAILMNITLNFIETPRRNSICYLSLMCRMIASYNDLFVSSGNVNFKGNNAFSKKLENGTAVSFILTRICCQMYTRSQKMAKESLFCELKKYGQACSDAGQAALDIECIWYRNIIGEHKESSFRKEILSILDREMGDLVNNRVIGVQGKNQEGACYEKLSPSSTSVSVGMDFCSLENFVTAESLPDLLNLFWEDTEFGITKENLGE
Method: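 Universal 'all 10-mer' protein binding microarrays (Agilent AMADID 015681) probed with GST-tagged S. cerevisiae TFs (full-length or DBD) made by in vitro transcription/translation (PURExpress), about 100-200 nM. Bound TF was detected with fluorescent anti-GST. Each ungapped 8-mer (which stands for itself and its reverse complement) is scored by the PBM enrichment score (E-score), a modified Wilcoxon-Mann-Whitney statistic from -0.5 to +0.5, computed with the Universal PBM Analysis Suite. Scale: above 0.35 generally sequence-specific binding.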

Sequence | PBM E-score
AGCCTCCG | -0.0175
GATTGGAA | 0.0146
GATACTAA | 0.263
AAGTCATA | 0.0621
GTCTCACA | -0.0501
AGAGGGGA | -0.286
AACCGGCG | 0.306
ATGGAAAG | -0.00552
GCAACCGC | 0.149
ACGCAAGA | -0.0555
ACAGGTTG | -0.0831
CCGTTTCA | 0.17
AGTCCTGG | -0.181
AGGAAAGA | -0.0951
ACCCGTCG | -0.0686
AACTTTGA | 0.154
CGCATCTC | -0.0244
AGCACTCG | -0.0898
TCCTCGCA | -0.124
CAAAGATG | -0.128
CCATCCTC | -0.0331
GAAACACA | 0.212
GACCCATC | -0.16
CGCGGAAA | 0.325

Sequence | PBM E-score
CAGCGACA | -0.194
CTGCTGCA | -0.0619
CGCAGAAC | 0.148
CATTTCGG | 0.157
CCACTTCC | 0.0378
ACGGATAA | 0.299
AGTTTGAC | 0.0194
ATCAAGAC | 0.0705
CCTCGTCA | 0.02
ACTCAGTG | -0.237
CTAGTTGA | 0.0658
CCCTGTAA | -0.0416
CTCACTAC | 0.104
AAAAAGCT | -0.0116
AATTAGAG | 0.0326
AGGTTAAA | -0.00589
CGAGGGCG | -0.112
ACACAGAC | 0.153
ACCATATC | -0.0788
ATATATGG | 0.128
AGTCTAAG | 0.109
CAGCTTGA | -0.0644
GCAGTTCC | 0.00809
AGTACATA | 0.137

Sequence | PBM E-score
ATTCTCAA | 0.0586
CGCTCCCC | -0.337
TCCTCAAA | 0.0776
GGCCGACC | 0.028
TATGCAAA | 0.00152
AAATGCTA | 0.0591
AATGCATC | 0.033
AGAATATA | -0.0416
AACGGGCA | -0.0355
ACGATTCA | 0.0112
AGGGTAAT | -0.053
CGGAGGCC | -0.0369
CACTGGCA | -0.033
ATATTCTG | -0.0103
TCATACAA | 0.168
CCAGCTCG | -0.117
CTATTGAA | 0.142
AATACGTC | 0.0603
CTTACGCA | -0.183
CTAAGGTA | 0.0764
ACTTGTCC | -0.0136
ATTAGCGA | -0.0417
ATTACATC | 0.189
TTAAGTAA | 0.149

Sequence | PBM E-score
CTAAGGAC | -0.135
ATTTATGC | 0.0222
GACAAAAC | 0.0933
ACGCTTAG | -0.132
CAGGTTCG | -0.0267
AATCGTCT | -0.0451
AGACTACA | -0.165
AGTGTATG | -0.0241
AGGCGTCA | -0.298
AAGCATTC | -0.0221
ATTCCGAG | 0.353
CGGGGACC | -0.0241
GAGAGACA | -0.101
CGTAATCC | 0.12
ACTGTACC | -0.0502
AGCCGCAG | -0.13
AGATAAGG | -0.0938
AGGTATAT | 0.0334
ACAAGCCT | -0.102
TAGTGACA | 0.053
GGTAGCTA | -0.271
GTCTGCAA | -0.0236

Some of the entries so far, in markdown.

| Sequence | PBM E-score |
| --- | --- |
| ACCATATC | -0.0788 |
| GCAGTTCC | 0.00809 |
| CGCTCCCC | -0.337 |
| ACTTGTCC | -0.0136 |
